Measured values from PubChem BioAssay AID1347426 (Functional Genomics Laboratory (NCATS/FGL), 2020).
In all, about 31,000 sequences went through this assay and about 1,400 (4.5%) were called active.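 The calls were made as follows: active = median seed-adjusted z-score above 1 or below -1; inactive = the rest.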 This is one part of the list.

Assay: Novel Modifiers of Survival Motor Neuron (SMN) Protein: Gene Identification via Genome-wide siRNA Screen;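 also: luminescence tracks full-length SMN protein made from the SMN2 reporter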
Settings: HEK293T SMN2-luciferase reporter, siRNA knockdown, 72 h; actives lie on both sides
Method in brief: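 Each of three siRNAs per gene is reverse-transfected (1 pmol) into reporter HEK293T cells whose luciferase output tracks SMN protein level. After 72 h culture, ONE-Glo luminescence is control-normalized, log10-transformed and MAD-standardized; Common Seed Analysis deprioritizes seed-driven hits.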

Row | Sequence | median seed-adjusted z-score
1 | GCCUCGACUUGUCUAUGGATT against PAPOLA | inactive: 0
2 | GGCUUUCACCAGAUUCACATT against LYPLA1 | inactive: 0
3 | ACCUGGAGGGUGACUAUUATT against JAG2 | inactive: -0.234
4 | CCAUUGCUAAUGUGCCUAUTT against SAR1B | inactive: 0.693
5 | AAAUCAAGAUUCUUACUGATT against TPM3 | inactive: 0.111
6 | CUCUGAACCUGUCCCGAAATT against FLII | inactive: -0.353
7 | GACCGAUCCAUAUCUGAUATT against OPA1 | inactive: -0.182
8 | CGGUGGACGUGAGAGACUUTT against HSPB7 | inactive: -0.288
9 | GGCAGUUGGUUGUAGAAGATT against COL4A3BP | inactive: 0.0391
10 | CCAAGGAGAUUUUAUGUCUTT against TRIM60 | inactive: -0.201
11 | GACGUGGAGUUGAUAAAGATT against DSC3 | inactive: 0.18
12 | AGAGAAUCCAGGAUCAGAATT against CHIT1 | inactive: -0.578
13 | GUGCGAAUGUUGCUGGUGATT against CCKBR | inactive: 0.314
14 | GCAACAUCUGGAUCGUGAATT against TTLL3 | inactive: -0.194
15 | GCAGAAUGCGCUCAAGUCATT against HOXD13 | inactive: 0.116
16 | GCUUCACUUCCAACCCUUUTT against GPR61 | inactive: 0
17 | GCUUUUAAUCGAUUCUCAUTT against ZNF431 | inactive: 0.00537
18 | GCUUCAGUCUGAGCCCAAATT against ZNF16 | inactive: 0
19 | CACACAUGCUCUCCCACAGTT against DUX1 | inactive: -0.62
20 | GGAUAGAGAGUCGACAGAATT against HELLS | inactive: 0.192
21 | GGACGAUACUCUGACCGUUTT against SFRS5 | inactive: 0.346
22 | GCGAUGAAAAGAAAAGUCATT against TPO | inactive: 0.894
23 | CCCUUAAUAGAGAGAGUUATT against AADAT | inactive: 0.0891

Row | Sequence | median seed-adjusted z-score
24 | GCUUAUCUCGGCAAUCAAATT against PAPPA2 | inactive: -0.173
25 | CAUCAUCAACAGGACCUAUTT against GDPD3 | inactive: -0.0754
26 | CACGAGCUAAAGUAAAAUATT against EGLN1 | active: 2.05
27 | CUCCAGCUCUGAUUGUAUATT against ABHD14B | inactive: -0.175
28 | GGGUGAAGUCUCUCAAGAATT against LLGL1 | active: -1.13
29 | GGAGAUAAAUGGACGCAAUTT against MBNL1 | inactive: 0.658
30 | GUACAACUCCCAUCCCUGATT against SLC5A9 | inactive: 0.15
31 | CUAAGGACCUCAUAGUUGATT against NUMB | inactive: -0.599
32 | GAGAGAAUGCUGAACUGGATT against KRT39 | inactive: 0.161
33 | GACUCUUAGUUUUUCAAAATT against ISL2 | inactive: 0.392
34 | UGGACAAAGUAGCAUGUUATT against KLF11 | inactive: 0.158
35 | GACUUUACCUUUGAGUACUTT against ZNF407 | inactive: 0.00802
36 | CCCUAUAAUCAGACAUUAATT against CTBS | inactive: 0.0442
37 | CUCUAGUCGCGUCAAGUUUTT against NISCH | inactive: -0.0757
38 | UACACCAAAUGGAUCAAGATT against TESSP5 | inactive: 0
39 | GCAUCGACCUGUCCUCCAATT against ELFN2 | inactive: -0.0888
40 | GGAAGUCUACUCUCCUUUATT against ARL14 | inactive: 0.417
41 | GCGGAGUACUUCAAGAACATT against SLC13A4 | inactive: 0.446
42 | GCACUACGGACCAUAGUUATT against NRF1 | inactive: 0.608
43 | GACCUUCACGACAAAGUAUTT against ALOXE3 | inactive: -0.504
44 | GUAUCGGACAUGAUCCUCATT against RABGGTB | inactive: -0.856
45 | GGCUAUACGAUUUACUCUATT against HTR7 | inactive: -0.0111
46 | GACUGACAGGUGUCGCUUUTT against IKBKAP | inactive: -0.0316

Row | Sequence | median seed-adjusted z-score
47 | GAAUGUCUCCAUCAAUACATT against TES | inactive: -0.698
48 | GCACCUAUAAGGAUGGGAATT against CTSZ | inactive: -0.393
49 | GAGCUGACCUUGAACGAGATT against CHGB | active: -1.29
50 | CCAUUACGCAGAUUAAGUATT against EIF3I | inactive: -0.0445
51 | GUCUCGUCGUUUUGAUGAATT against PRKCH | inactive: 0.761
52 | CUACAUUGCUGGGACUAAUTT against RRM1 | active: -5.51
53 | GCUUGAUGGUUCAACUCCATT against PMPCB | inactive: 0.507
54 | GAAACUUGCUGGAUAUGAUTT against DGUOK | inactive: 0.0168
55 | CCUGAACCGUAUAUCCUAUTT against HEXA | inactive: -0.551
56 | CCUGAUCUGUGGAGAUGAATT against AR | inactive: -0.559
57 | AUACUCUCCCAGAUUUUUATT against CDX2 | inactive: 0.23
58 | GAAGAGUACUCAACAGGGUTT against NTNG1 | inactive: 0.0823
59 | AGACCUGUCCAUUCGCUCATT against STAT6 | inactive: 0.28
60 | GCCAGAAUCCUUUAGCAGUTT against CRTC1 | inactive: 0.00363
61 | GGAAUGAUAUAAGCUGGAATT against SIGLEC7 | inactive: -0.296
62 | GGACGUGCAGGAUUAGUCATT against PARP15 | inactive: -0.332
63 | GCACUUAGGUCAUAUGGGUTT against UNC13C | inactive: -0.136
64 | GGGAUCAAACAAUAAGUUATT against RPGR | inactive: 0.1
65 | GGGAGGCCGUGAGUAUCUATT against CBLC | inactive: -0.726
66 | GGAUCAUAGUGCUGGCAAATT against ABCC6 | inactive: 0.108
67 | CCAUUUCAGAUUAUCCGAATT against PTER | inactive: 0.75
68 | GCCUAUUCCUAACUGAUCUTT against 2-Sep | inactive: 0.0349
69 | UGAACUAAGCGAUAACAGATT against ANP32A | inactive: 0.377
